Where “and” joins values, the source holds several entries; their conditions need not be identical. Identical values can stand only once. Where no unit stands, none is given here, and values compare only within one read-out. Where a SMILES comes first, the peptide text is derived from it. [ ]: non-standard residue; d: D form. Hyp = O=C(O)[C@@H]1C[C@@H](O)CN1
Key:
Assay type in all cases: cell-based, human
IL-1 alpha = assay: Example 9 Luminex, LPS hPBMCs: IL-1 alpha; settings: Bead IL-1 alpha, replicates and Mean
Method: (§1) Treatment Human PBMCs were pretreated with YY-101, YDE-011 and YDE-043 or reference compound; Xiidra® at various concentration (ranging from 1 nM to 100 uM) for 2 h before stimulation. An equal volume of 0.5% DMSO was used as a vehicle control. Then, the cells were treated with LPS at 5 ug/ml. The supernatants from treated cells were harvested at 24 h and placed in a 96 well for Luminex cytokine & chemokine profiling using a Luminex 200 multiplex assay (Luminex; R&D system, USA).
(§2) The main study arm with triplicate wells per group in a 24-well plate: • 1. Blank • 2. PBMC: 0.5% DMSO • 3. PBMC+LPS (5 ug/ml) • 4. PBMC+YY-101 100 uM • 5. PBMC+YY-101 10 uM • 6. PBMC+YY-101 1 uM • 7. PBMC+YY-101 0.1 uM • 8. PBMC+YY-101 0.01 uM • 9. PBMC+LPS (5 ug/ml)+Xiidra®100 uM • 10. PBMC+LPS (5 ug/ml)+Xiidra® 10 uM • 11. PBMC+LPS (5 ug/ml)+Xiidra® 1 uM • 12. PBMC+LPS (5 ug/ml)+Xiidra®0.1 uM • 13. PBMC+LPS (5 ug/ml)+Xiidra®0.01 uM • 14. PBMC+LPS (5 ug/ml)+Xiidra®0.001 uM • 15. PBMC+LPS (5 ug/ml)+YY-101 100 uM • 16. PBMC+LPS (5 ug/ml)+YY-101 10 uM • 17. PBMC+LPS (5 ug/ml)+YY-101 1 uM • 18. PBMC+LPS (5 ug/ml)+YY-101 0.1 uM • 19. PBMC+LPS (5 ug/ml)+YY-101 0.01 uM • 20. PBMC+LPS (5 ug/ml)+YY-101 0.001 uM • 21. PBMC+LPS (5 ug/ml)+YDE-011 100 uM • 22. PBMC+LPS (5 ug/ml)+YDE-011 10 uM • 23. PBMC+LPS (5 ug/ml)+YDE-011 1 uM • 24. PBMC+LPS (5 ug/ml)+YDE-011 0.1 uM • 25. PBMC+LPS (5 ug/ml)+YDE-011 0.01 uM • 26. PBMC+LPS (5 ug/ml)+YDE-011 0.001 uM • 27. PBMC+LPS (5 ug/ml)+YDE-043 100 uM • 28. PBMC+LPS (5 ug/ml)+YDE-043 10 uM • 29. PBMC+LPS (5 ug/ml)+YDE-043 1 uM • 30. PBMC+LPS (5 ug/ml)+YDE-043 0.1 uM • 31. PBMC+LPS (5 ug/ml)+YDE-043 0.01 uM • 32. PBMC+LPS (5 ug/ml)+YDE-043 0.001 uM
(§3) Multiplex assay was used to measure 30 cytokines and chemokines. The 1:2, 1:10 and 1:200 diluted cell supernatant and serial dilution of the standard were dispensed into a 96 well plate at 50 ul/well. Then, the pre-mixed cocktail of antibody-coated magnetic beads was dispensed at 50 ul/well and incubated at room temperature for 2 h in a horizontal orbital microplate shaker at 800±500 rpm. The beads were washed using a magnetic device to prevent loss. The biotin-antibody was dispensed in 50 ul of each well and incubated at room temperature for 1 h in a shaker at 800±500 rpm. After washing, streptavidin-PE was added at 50 ul/well and incubated at room temperature for 30 min in a shaker under the same conditions. Finally, after washing, wash buffer (100 ul/well) was added to the plate and incubated in a shaker for 2 min. The Luminex™ 200 setting were set according to the manufacturer's protocol. The data was calculated with a standard five-parameter logistic nonlinear regression analysis of the data (xPonent software 4.2, USA). The levels of cytokine/chemokine are normalized to the live cell counts (1×10^5 cells/mL) and presented as concentrations per mL (pg/mL or ng/mL).

CCL2/JE/MCP-1 = assay: Example 9 Luminex, LPS hPBMCs: CCL2/JE/MCP-1; settings: Bead CCL2/JE/MCP-1
Method: as §1, §2, §3

IL-8 = assay: Example 9 Luminex, LPS hPBMCs: IL-8; settings: Bead IL-8
Method: as §1, §2, §3

[1] = PBMC + LPS(5 ug/ml) + test article 0.001 uM, Mean
[2] = PBMC + LPS(5 ug/ml) + test article 0.01 uM, Mean
[3] = PBMC + LPS(5 ug/ml) + test article 0.1 uM, Mean
[4] = PBMC + LPS(5 ug/ml) + test article 1 uM, Mean
[5] = PBMC + LPS(5 ug/ml) + test article 10 uM, Mean
[6] = PBMC + LPS(5 ug/ml) + test article 100 uM, Mean
[7] = PBMC + test article 0.01 uM, no LPS, Mean
[8] = PBMC + test article 0.1 uM, no LPS, Mean
[9] = PBMC + test article 1 uM, no LPS, Mean
[10] = PBMC + test article 10 uM, no LPS, Mean
[11] = PBMC + test article 100 uM, no LPS, Mean

For CC(C)C[C@H](NC(=O)CNC(=O)[C@H](CC(=O)O)NC(=O)[C@H](CCC(N)=O)NC(=O)CNC(=O)[C@@H]1C[C@@H](O)CN1)C(=O)N[C@@H](C)C(=O)NCC(=O)N1CCC[C@H]1C(=O)N[C@@H](CCCCN)C(=O)O [YY-101] (H-[Hyp]GQDGLAGPK-OH; N-terminus and C-terminus assumed), the MFI (IL-1 alpha; PBMC + LPS(5 ug/ml) + YY101 0.001 uM) was 504.5 and 553.0 and 496.0 and 517.8, the MFI (IL-1 alpha; PBMC + LPS(5 ug/ml) + YY101 0.01 uM) was 613.0 and 572.0 and 584.0 and 589.7 and the MFI (IL-1 alpha; PBMC + LPS(5 ug/ml) + YY101 0.1 uM) was 593.0 and 580.0 and 581.0 and 584.7. The MFI (IL-1 alpha; PBMC + LPS(5 ug/ml) + YY101 1 uM) was 538.5 and 506.0 and 515.5 and 520.0, the MFI (IL-1 alpha; PBMC + LPS(5 ug/ml) + YY101 10 uM) was 568.5 and 565.0 and 582.5 and 572.0 and the MFI (IL-1 alpha; PBMC + LPS(5 ug/ml) + YY101 100 uM) was 816.0 and 762.0 and 759.0 and 779.0. The MFI (IL-1 alpha; PBMC + YY101 0.01 uM (second group so labelled), no LPS) was −1.0 and 1.0 and 0.0, the MFI (IL-1 alpha; PBMC + YY101 0.01 uM, no LPS) was −1.0 and 1.0 and 0.0 and the MFI (IL-1 alpha; PBMC + YY101 1 uM, no LPS) was 1.0. For the same compound, the MFI (IL-1 alpha; PBMC + YY101 10 uM, no LPS) was 20.0 and 2.0 and 11.0, the MFI (IL-1 alpha; PBMC + YY101 100 uM, no LPS) was 4.0 and 1.0 and 2.5 and the MFI (CCL2/JE/MCP-1; [1]) was 13155.3. The MFI (CCL2/JE/MCP-1; PBMC + LPS(5 ug/ml) + test article 0.001 uM, individual replicates) was 12717.0 and 12912.0 and 13837.0, the MFI (CCL2/JE/MCP-1; [2]) was 13399.2 and the MFI (CCL2/JE/MCP-1; PBMC + LPS(5 ug/ml) + test article 0.01 uM, individual replicates) was 13686.0 and 13444.5 and 13067.0. The MFI (CCL2/JE/MCP-1; [3]) was 12213.3, the MFI (CCL2/JE/MCP-1; PBMC + LPS(5 ug/ml) + test article 0.1 uM, individual replicates) was 12267.0 and 12562.0 and 11811.0 and the MFI (CCL2/JE/MCP-1; [4]) was 13380.5. For the same compound, the MFI (CCL2/JE/MCP-1; PBMC + LPS(5 ug/ml) + test article 1 uM, individual replicates) was 13078.5 and 13103.0 and 13960.0, the MFI (CCL2/JE/MCP-1; [5]) was 11852.3 and the MFI (CCL2/JE/MCP-1; PBMC + LPS(5 ug/ml) + test article 10 uM, individual replicates) was 11415.0 and 12533.0 and 11609.0. The MFI (CCL2/JE/MCP-1; [6]) was 1176.7, the MFI (CCL2/JE/MCP-1; PBMC + LPS(5 ug/ml) + test article 100 uM, individual replicates) was 992.0 and 1275.0 and 1263.0 and the MFI (CCL2/JE/MCP-1; [7]) was 10422.3. For the same compound, the MFI (CCL2/JE/MCP-1; PBMC + test article 0.01 uM, no LPS, individual replicates) was 4825.5 and 16019.0, the MFI (CCL2/JE/MCP-1; [8]) was 6839.3 and the MFI (CCL2/JE/MCP-1; PBMC + test article 0.1 uM, no LPS, individual replicates) was 4052.5 and 9626.0. The MFI (CCL2/JE/MCP-1; [9]) was 5920.5, the MFI (CCL2/JE/MCP-1; PBMC + test article 1 uM, no LPS, individual replicates) was 4611.0 and 7230.0 and the MFI (CCL2/JE/MCP-1; [10]) was 16393.8. The MFI (CCL2/JE/MCP-1; PBMC + test article 10 uM, no LPS, individual replicates) was 22755.0 and 10032.5, the MFI (CCL2/JE/MCP-1; [11]) was 3076.8 and the MFI (CCL2/JE/MCP-1; PBMC + test article 100 uM, no LPS, individual replicates) was 4286.0 and 1867.5. For the same compound, the MFI (IL-8; [1]) was 1540.7, the MFI (IL-8; PBMC + LPS(5 ug/ml) + test article 0.001 uM, single replicates (1st, 2nd, 3rd)) was 1479.5 and 1465.5 and 1677.0 and the MFI (IL-8; [2]) was 1489.0. The MFI (IL-8; PBMC + LPS(5 ug/ml) + test article 0.01 uM, single replicates (1st, 2nd, 3rd)) was 1486.0 and 1465.5 and 1515.5, the MFI (IL-8; [3]) was 1373.5 and the MFI (IL-8; PBMC + LPS(5 ug/ml) + test article 0.1 uM, single replicates (1st, 2nd, 3rd)) was 1353.5 and 1407.5 and 1359.5. The MFI (IL-8; [4]) was 1505.0, the MFI (IL-8; PBMC + LPS(5 ug/ml) + test article 1 uM, single replicates (1st, 2nd, 3rd)) was 1476.5 and 1478.5 and 1560.0 and the MFI (IL-8; [5]) was 1522.5. For the same compound, the MFI (IL-8; PBMC + LPS(5 ug/ml) + test article 10 uM, single replicates (1st, 2nd, 3rd)) was 1511.5 and 1649.0 and 1407.0, the MFI (IL-8; [6]) was 1517.2 and the MFI (IL-8; PBMC + LPS(5 ug/ml) + test article 100 uM, single replicates (1st, 2nd, 3rd)) was 1574.5 and 1532.5 and 1444.5. For the same compound, the MFI (IL-8; [7]) was 162.8, the MFI (IL-8; PBMC + test article 0.01 uM, no LPS, single replicates (1st, 2nd)) was 95.5 and 230.0 and the MFI (IL-8; [8]) was 147.8. For the same compound, the MFI (IL-8; PBMC + test article 0.1 uM, no LPS, single replicates (1st, 2nd)) was 90.0 and 205.5, the MFI (IL-8; [9]) was 153.5 and the MFI (IL-8; PBMC + test article 1 uM, no LPS, single replicates (1st, 2nd)) was 149.5 and 157.5. The MFI (IL-8; [10]) was 697.0, the MFI (IL-8; PBMC + test article 10 uM, no LPS, single replicates (1st, 2nd)) was 1227.5 and 166.5 and the MFI (IL-8; [11]) was 511.5. The MFI (IL-8; PBMC + test article 100 uM, no LPS, single replicates (1st, 2nd)) was 664.5 and 358.5.

From patent US20230146455A1 (Yuyu Pharma, Inc., priority 2020, published 2023)
